Results: patent US20210244721A1, “SMALL MOLECULE ENTEROVIRUS INHIBITORS AND USES THEREOF” (priority 2020, published 2021)

By UniProt entry, the sequences of proteins in these tests, tags left out. Residues count along the entry.
UniProt P03313, 1137-1429: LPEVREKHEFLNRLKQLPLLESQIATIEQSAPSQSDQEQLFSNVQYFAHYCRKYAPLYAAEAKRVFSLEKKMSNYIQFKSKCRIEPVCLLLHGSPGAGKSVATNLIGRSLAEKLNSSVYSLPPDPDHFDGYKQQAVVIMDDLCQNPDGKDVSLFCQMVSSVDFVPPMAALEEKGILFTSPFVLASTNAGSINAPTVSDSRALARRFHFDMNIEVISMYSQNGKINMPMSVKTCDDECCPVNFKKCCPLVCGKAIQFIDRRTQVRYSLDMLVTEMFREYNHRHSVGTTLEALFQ

What was measured:
CVB3 = test: CPE assay, CVB3 in Vero C1008 cells; format: cell-based, coxsackievirus B3 (CVB3); details: Enterovirus B
EV-A71 Tainan/4643/98 = test: CPE assay, EV-A71 Tainan in RD cells; format: cell-based; details: Enterovirus A, EVA71
CVB3 2C protein = target: T1, CVB3 2C protein (Coxsackievirus B3, UniProt P03313); test: Thermal shift assay (differential scanning fluorimetry); format: binding; details: CVB3 2C 4.5 μM, read-out: Tm shift
T1 construct: CVB3 Nancy 2C (amino acids 37 to 329) protein; His tag with TEV site (inferred from the pET28a(+)-TEV vector and Ni-NTA purification); made in house; host or cells: E. coli Rosetta 2(DE3)

| SMILES | EC50 (CVB3) | EC50 (EV-A71 Tainan/4643/98) | ΔTm at 100 µM (CVB3 2C protein) |
| --- | --- | --- | --- |
| CNCCC(Oc1ccc(C(F)(F)F)cc1)c1ccccc1 (stereo not drawn) [drawing 196] | 2.1 µM | > 10 µM |  |
| CNCCC(Oc1ccc(C(F)(F)F)cc1)c1ccccc1 (stereo not drawn) [fluoxetine] |  |  | 1.31 °C |
